Assay results taken from patent publication US20100137305A1, “AMINOPYRIMIDINES USEFUL AS KINASE INHIBITORS” (VERTEX PHARMACEUTICALS INCORPORATED, priority 2008, published 2010).
Some results were stated once for a whole list of compounds, not compound by compound.

Assay: Microsomal Stability Assay
Type: in vitro ADME
Details: 5 μM compound

SMILES	% parent remaining after 30 minutes incubation with human liver microsomes	% parent remaining after 60 minutes incubation with human liver microsomes
Cc1cc(Nc2cc(N3CCC(N4CCOCC4)CC3)nc(Sc3ccc(NC(=O)C4CC4(F)F)cc3)n2)[nH]n1 (stereo not drawn) [Compound I-75]	> 50%	
Cc1cc(Nc2cc(N3CCC(N4CCN(C)CC4)CC3)nc(Sc3ccc(NC(=O)C4(C(F)(F)F)CC4)cc3)n2)[nH]n1 [Compound I-64]	> 50%	
Cc1cc(Nc2cc(N3CCCC(F)(F)C3)nc(Sc3ccc(NC(=O)CC(F)(F)F)cc3)n2)[nH]n1 [Compound I-26]		> 50%
CCC(=O)Nc1ccc(Sc2nc(Nc3cc(C)n[nH]3)cc(N3CCC(NC(C)(C)C)CC3)n2)cc1 [Compound I-7]		> 50%
CN1CCC2(CCN(c3cc(Nc4cc(C5CC5)n[nH]4)nc(Sc4ccc(NC(=O)C5CC5)cc4)n3)CC2)C1 [Compound I-51]		> 50%
Cc1cc(Nc2cc(N3CCC4(CCN(C)C4)CC3)nc(Sc3ccc(NC(=O)C4CC4)cc3F)n2)[nH]n1 [Compound I-54]	> 50%	> 50%
Cc1cc(Nc2cc(N3CC[C@H](N(C)C)C3)nc(Sc3ccc(NC(=O)c4ccccc4C(F)(F)F)cc3)n2)[nH]n1 [Compound I-70]	> 50%	
CCC(=O)Nc1ccc(Sc2nc(Nc3cc(C)n[nH]3)cc(N3CC[C@H](N4CCCC4)C3)n2)cc1 [Compound I-55]	> 50%	
Cc1cc(Nc2cc(N3CC[C@@H](F)C3)nc(Sc3ccc(NC(=O)c4ccccc4C(F)(F)F)cc3)n2)[nH]n1 [Compound I-74]	> 50%	> 50%
Cc1cc(Nc2cc(N3CCC(N4CCOCC4)CC3)nc(Sc3ccc(NC(=O)CC(F)(F)F)cc3)n2)[nH]n1 [Compound I-72]	> 50%	
CCC(=O)Nc1ccc(Sc2nc(Nc3cc(C)n[nH]3)cc(N3CCC(N4CCC(F)C4)CC3)n2)cc1 (stereo not drawn) [Compound I-43]	> 50%	
Cc1cc(Nc2cc(N3CCC4(CC3)CCN(C(C)C)C4)nc(Sc3ccc(NC(=O)C4CC4)cc3)n2)[nH]n1 [Compound I-31]		> 50%
CCC(=O)Nc1ccc(Sc2nc(Nc3cc(C)n[nH]3)cc(N3CCC(N(C)C(C)(C)C)CC3)n2)cc1 [Compound I-47]	> 50%	> 50%
CCC(=O)Nc1ccc(Sc2nc(Nc3cc(C4CC4)n[nH]3)cc(N3CCC(F)C3)n2)cc1 (stereo not drawn) [Compound I-20]	> 50%	> 50%
Cc1cc(Nc2cc(N3CCC(N4CCCC4)CC3)nc(Sc3ccc(NC(=O)CC4CCCC4)cc3)n2)n[nH]1 [Compound I-77]	> 50%	> 50%
CCC(=O)Nc1ccc(Sc2nc(Nc3cc(C)n[nH]3)cc(N3CC4CCCNC4C3)n2)cc1 (stereo not drawn) [Compound I-19]	> 50%	> 50%
Cc1cc(Nc2cc(N3CCC(N4CCCC4)CC3)nc(Sc3ccc(NC(=O)C4(C(F)(F)F)CC4)cc3)n2)[nH]n1 [Compound I-65]	> 50%	> 50%
CCC(=O)Nc1ccc(Sc2nc(Nc3cc(C4CC4)n[nH]3)cc(N3CC[C@H](N4CCCC4)C3)n2)cc1 [Compound I-62]	> 50%	
CCC(=O)Nc1ccc(Sc2nc(Nc3cc(C)n[nH]3)cc(N3CCC(N4CCCC4)C3)n2)cc1 (stereo not drawn) [Compound I-48]	> 50%	
CCC(=O)Nc1ccc(Sc2nc(Nc3cc(C)n[nH]3)cc(N3CC4CN(C(C)C)CC4C3)n2)cc1 (stereo not drawn) [Compound I-60]	> 50%	
